The values that follow come from US20220112180, “NOVEL COMPOUNDS AS POTENTIAL THERAPEUTIC AGENTS TARGETING VARIOUS NEURODEGENERATIVE DISEASES” (The Hong Kong University of Science and Technology, published 2022).

The exact form of at least one protein or probe is not confirmed.

In this data set the test system is hnRNP F RRM domain. Description: binding assay. The settings on record: 1H-15N HSQC NMR titration at 1:1; binding sites almost all blocked by compound cA (1:10:1); 20 mM potassium phosphate, 70 mM KCl, pH 7.0, 25 C; purified recombinant protein; folded or branched DNA.

With “GGGGCCGGGGCCGGGGCCGGGGCC [DNA (G4C2)4 G4]”, the binding result is “binds”.
